Measurements: patent US20040072742A1
No constants are given. Whether binding was seen depends on the method and setting. Some binding calls cover weakened binding; strength is not graded here. Sequences can lack the tags named with a protein.

Target: T1, GST-MD36N4 protein (human MD36 C terminal part fused to glutathione S-transferase) (human) (UniProt Q9Y613)
T1 sequence: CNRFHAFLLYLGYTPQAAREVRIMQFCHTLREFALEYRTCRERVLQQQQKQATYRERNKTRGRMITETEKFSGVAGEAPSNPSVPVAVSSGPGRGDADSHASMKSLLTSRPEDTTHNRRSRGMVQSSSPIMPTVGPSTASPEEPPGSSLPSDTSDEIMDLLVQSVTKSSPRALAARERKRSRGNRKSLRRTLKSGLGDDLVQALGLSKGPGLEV
Test: plate binding test: GST-MD36N4 coated on EIA plate, IRAP-His added, anti-Penta-His antibody and ECL detection

binding: binds
B1: IRAP-His (IRAP cytoplasmic domain, residues 1-109, linked to His-tag) (protein, not shown: small tags and cut ends)
chain: METFTNDRLQLPRNMIENSMFEEEPDVVDLAKEPCLHPLEPDEVEYEPRGSRLLVRGLGEHEMDEDEEDYESSAKLLGMSFMNRSSGLRNSATGYRQSPDGTCSVPSAR
